According to doi:10.1101/2020.05.19.105320:
Results are given in words; binding and its absence hold for the method and conditions named. Binding seen in cells or lysates may run through a third protein. Some entries that bind do so weakly or less than the wild type. For part of these data: Tags and fused reporters may be left off the sequences shown. Each block holds one molecule with its values, some of them ahead of it.

Chains of the proteins cited; added tags and fusions are not shown. Residues count along the entry.
UniProt O76031, residues 57-633: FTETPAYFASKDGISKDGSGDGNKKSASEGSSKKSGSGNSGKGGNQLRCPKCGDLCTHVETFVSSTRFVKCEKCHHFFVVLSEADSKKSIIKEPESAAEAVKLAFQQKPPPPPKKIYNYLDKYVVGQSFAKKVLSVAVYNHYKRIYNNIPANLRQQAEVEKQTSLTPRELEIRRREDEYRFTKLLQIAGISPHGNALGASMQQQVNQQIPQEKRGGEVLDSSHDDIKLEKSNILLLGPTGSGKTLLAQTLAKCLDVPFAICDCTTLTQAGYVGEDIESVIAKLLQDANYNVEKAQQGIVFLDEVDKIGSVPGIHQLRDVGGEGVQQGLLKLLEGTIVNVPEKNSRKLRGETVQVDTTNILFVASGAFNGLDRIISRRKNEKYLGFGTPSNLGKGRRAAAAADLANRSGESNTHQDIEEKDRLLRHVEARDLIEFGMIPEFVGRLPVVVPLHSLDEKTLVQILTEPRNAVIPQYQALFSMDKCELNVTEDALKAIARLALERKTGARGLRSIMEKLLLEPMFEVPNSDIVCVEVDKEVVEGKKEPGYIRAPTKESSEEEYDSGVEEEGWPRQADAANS
UniProt P0A6H1, residues 2-52: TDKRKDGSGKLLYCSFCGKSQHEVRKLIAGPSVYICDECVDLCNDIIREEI

How the values were obtained:
[1] = molecular target: T1, Polymerase δ interacting protein of 38 kDa (PDIP38), endogenous (human (endogenous in HeLa)) (UniProt Q9Y2S7); assay: co-IP
T1 sequence: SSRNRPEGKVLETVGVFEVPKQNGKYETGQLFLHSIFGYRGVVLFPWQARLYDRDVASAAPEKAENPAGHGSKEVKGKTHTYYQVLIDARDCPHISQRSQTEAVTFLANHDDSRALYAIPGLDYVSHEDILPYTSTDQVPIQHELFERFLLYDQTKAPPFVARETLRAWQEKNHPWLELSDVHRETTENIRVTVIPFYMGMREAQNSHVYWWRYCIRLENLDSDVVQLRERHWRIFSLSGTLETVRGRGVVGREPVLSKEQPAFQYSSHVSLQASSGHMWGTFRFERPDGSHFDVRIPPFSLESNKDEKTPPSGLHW

[2] = molecular target: CLPX, endogenous (human (endogenous in HeLa)) (UniProt O76031); assay: co-IP
[3] = molecular target: Escherichia coli ClpX (ecClpX) ZBD (ecZBD), H10-tagged (Escherichia coli) (UniProt P0A6H1); assay: pull-down

- binding [1]: binds
Molecule: CLPX, endogenous (from UniProt O76031 57-633)

- binding [2]: binds
B1: Polymerase δ interacting protein of 38 kDa (PDIP38), endogenous (protein, UniProt Q9Y2S7 52-368)
chain: T1 sequence

- binding [3]: no binding
B2: GST-PDIP38 (protein, UniProt Q9Y2S7 52-368)
chain: T1 sequence
